The supplement of paper PMC6411743
± gives the standard deviation of the averaged measurements. The list shows a part of the results, in another mix than the full data. Small differences around the control level are noise.

Amino acid sequences for entries named in this document (tags omitted). A change or cut given only in a name is not applied to a line headed by its entry.
UniProt P60900, whole entry: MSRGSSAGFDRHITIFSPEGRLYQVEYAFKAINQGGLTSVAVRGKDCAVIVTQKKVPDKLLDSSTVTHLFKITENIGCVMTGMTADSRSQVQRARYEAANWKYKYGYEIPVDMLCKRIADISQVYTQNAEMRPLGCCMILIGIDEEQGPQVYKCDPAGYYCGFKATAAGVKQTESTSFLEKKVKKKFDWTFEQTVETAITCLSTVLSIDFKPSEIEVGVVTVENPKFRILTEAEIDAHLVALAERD
UniProt P83369: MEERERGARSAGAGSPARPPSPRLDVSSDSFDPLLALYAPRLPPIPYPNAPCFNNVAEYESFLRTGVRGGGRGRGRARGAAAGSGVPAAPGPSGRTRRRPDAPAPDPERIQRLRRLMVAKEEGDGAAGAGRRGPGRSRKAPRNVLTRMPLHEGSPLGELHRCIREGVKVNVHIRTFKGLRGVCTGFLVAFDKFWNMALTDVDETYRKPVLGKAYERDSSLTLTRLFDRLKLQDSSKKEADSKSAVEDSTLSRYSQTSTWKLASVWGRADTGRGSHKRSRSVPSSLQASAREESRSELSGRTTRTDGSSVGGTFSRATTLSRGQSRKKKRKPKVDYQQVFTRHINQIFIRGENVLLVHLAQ
UniProt P78536: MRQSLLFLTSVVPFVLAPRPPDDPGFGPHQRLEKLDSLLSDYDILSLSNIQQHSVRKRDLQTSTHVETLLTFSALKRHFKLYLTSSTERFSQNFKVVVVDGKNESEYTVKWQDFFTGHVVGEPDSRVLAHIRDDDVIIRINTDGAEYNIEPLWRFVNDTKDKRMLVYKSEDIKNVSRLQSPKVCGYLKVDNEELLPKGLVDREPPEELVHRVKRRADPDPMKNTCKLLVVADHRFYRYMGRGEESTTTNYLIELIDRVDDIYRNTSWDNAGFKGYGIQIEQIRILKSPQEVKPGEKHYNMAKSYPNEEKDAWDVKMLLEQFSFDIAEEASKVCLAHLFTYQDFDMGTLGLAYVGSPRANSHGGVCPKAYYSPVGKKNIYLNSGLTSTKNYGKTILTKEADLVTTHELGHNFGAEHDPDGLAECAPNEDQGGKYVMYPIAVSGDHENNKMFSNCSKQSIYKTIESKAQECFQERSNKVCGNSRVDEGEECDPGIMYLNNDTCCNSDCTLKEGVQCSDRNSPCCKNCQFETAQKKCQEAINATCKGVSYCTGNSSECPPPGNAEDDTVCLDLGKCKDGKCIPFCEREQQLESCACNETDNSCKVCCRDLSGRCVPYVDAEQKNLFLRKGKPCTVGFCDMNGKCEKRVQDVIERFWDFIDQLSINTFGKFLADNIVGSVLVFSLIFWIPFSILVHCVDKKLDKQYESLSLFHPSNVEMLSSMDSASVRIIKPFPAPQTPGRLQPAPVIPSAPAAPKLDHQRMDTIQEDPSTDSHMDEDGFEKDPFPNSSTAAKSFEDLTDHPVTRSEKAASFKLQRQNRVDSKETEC
UniProt P63104: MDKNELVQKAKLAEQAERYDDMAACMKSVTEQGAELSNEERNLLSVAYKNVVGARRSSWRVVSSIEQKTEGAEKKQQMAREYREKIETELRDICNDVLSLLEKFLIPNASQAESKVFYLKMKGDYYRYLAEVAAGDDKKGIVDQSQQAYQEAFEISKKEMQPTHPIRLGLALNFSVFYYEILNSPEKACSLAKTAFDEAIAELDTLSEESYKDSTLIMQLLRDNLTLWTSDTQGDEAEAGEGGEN
UniProt P53367: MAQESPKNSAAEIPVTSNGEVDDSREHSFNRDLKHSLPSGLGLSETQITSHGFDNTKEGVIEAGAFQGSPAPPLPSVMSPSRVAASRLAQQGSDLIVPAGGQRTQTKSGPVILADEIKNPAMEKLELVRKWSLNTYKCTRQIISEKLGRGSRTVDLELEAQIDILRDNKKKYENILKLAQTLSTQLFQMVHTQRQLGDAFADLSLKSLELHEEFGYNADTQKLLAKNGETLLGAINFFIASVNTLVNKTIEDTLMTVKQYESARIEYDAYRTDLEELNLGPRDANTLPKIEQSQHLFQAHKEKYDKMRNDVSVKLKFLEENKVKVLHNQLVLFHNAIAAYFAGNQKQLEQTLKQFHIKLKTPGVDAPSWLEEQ
UniProt P63218: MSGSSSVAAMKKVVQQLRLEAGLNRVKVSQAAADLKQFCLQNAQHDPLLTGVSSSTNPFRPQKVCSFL
UniProt P56381: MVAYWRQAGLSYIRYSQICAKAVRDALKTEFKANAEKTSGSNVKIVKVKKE
UniProt Q00534, whole entry: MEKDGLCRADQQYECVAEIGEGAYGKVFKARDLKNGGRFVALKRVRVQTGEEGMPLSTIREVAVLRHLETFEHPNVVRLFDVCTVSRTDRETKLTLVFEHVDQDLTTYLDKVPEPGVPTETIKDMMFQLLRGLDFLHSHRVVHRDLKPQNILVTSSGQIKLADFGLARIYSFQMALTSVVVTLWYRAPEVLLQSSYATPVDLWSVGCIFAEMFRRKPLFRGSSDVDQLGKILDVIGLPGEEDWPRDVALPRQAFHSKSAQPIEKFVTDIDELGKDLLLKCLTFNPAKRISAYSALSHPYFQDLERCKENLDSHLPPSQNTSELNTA
UniProt P61586, whole entry: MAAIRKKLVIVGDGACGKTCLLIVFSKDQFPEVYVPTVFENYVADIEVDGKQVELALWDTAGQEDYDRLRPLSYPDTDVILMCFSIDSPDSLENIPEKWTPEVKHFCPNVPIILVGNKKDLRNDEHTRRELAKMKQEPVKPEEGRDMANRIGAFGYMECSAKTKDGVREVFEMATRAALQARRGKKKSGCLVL
UniProt P61026: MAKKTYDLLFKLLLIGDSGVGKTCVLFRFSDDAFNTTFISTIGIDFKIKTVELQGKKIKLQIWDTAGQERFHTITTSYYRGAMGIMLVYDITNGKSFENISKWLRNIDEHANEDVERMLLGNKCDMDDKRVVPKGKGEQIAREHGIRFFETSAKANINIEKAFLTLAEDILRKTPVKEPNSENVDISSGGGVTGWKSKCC
UniProt P61204: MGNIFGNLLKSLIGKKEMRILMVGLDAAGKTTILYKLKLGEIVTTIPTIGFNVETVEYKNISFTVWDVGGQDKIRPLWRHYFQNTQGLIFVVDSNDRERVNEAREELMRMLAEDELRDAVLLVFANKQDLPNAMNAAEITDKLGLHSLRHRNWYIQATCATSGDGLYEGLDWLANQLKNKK
UniProt P59190: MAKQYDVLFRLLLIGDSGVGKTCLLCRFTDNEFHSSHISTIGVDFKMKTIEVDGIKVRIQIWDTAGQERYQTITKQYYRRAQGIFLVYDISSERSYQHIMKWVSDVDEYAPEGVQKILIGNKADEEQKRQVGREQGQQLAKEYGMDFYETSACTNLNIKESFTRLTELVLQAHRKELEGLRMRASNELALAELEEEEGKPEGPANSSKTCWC
UniProt P53621: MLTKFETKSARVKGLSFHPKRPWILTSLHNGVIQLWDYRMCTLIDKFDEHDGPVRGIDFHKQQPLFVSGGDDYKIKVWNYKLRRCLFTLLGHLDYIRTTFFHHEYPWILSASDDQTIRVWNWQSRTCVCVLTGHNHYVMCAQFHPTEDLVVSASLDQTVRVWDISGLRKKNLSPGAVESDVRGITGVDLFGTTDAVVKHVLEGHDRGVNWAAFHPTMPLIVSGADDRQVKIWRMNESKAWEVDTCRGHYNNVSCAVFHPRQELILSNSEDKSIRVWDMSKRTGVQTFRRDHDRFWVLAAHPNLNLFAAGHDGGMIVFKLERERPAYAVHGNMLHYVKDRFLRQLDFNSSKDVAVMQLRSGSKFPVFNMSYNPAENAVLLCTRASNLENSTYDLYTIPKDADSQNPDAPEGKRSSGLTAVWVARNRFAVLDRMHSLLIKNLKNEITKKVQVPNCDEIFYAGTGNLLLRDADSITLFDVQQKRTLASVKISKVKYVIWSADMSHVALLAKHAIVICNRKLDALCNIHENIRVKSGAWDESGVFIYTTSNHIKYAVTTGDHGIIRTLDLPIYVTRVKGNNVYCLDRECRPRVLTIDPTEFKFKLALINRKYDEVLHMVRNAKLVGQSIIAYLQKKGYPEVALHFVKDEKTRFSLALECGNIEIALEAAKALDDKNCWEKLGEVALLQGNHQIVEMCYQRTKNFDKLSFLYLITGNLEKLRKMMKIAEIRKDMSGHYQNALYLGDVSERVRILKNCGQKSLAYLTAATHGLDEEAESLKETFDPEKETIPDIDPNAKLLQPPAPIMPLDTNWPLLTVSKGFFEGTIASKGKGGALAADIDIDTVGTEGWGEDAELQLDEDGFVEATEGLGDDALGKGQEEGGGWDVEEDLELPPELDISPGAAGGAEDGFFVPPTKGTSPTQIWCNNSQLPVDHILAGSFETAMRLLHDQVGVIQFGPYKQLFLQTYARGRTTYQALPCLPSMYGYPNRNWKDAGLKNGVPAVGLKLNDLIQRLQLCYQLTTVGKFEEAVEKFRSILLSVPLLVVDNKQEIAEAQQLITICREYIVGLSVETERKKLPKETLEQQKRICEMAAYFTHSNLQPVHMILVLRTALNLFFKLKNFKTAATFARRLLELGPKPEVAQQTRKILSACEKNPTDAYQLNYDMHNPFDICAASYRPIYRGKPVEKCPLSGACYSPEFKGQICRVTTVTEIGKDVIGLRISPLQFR
UniProt P54274: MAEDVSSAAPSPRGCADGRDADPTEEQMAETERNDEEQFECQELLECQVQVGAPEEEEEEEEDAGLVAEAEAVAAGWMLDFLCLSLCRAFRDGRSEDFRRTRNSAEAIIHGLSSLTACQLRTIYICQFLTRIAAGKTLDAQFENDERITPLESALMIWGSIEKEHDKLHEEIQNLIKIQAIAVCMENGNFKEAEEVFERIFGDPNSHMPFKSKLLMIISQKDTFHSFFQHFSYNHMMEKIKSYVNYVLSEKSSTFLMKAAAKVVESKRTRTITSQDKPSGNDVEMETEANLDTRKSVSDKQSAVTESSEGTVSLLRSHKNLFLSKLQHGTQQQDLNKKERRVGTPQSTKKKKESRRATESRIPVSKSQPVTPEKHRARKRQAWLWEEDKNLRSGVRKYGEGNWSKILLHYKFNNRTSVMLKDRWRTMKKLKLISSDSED
UniProt P67775, whole entry: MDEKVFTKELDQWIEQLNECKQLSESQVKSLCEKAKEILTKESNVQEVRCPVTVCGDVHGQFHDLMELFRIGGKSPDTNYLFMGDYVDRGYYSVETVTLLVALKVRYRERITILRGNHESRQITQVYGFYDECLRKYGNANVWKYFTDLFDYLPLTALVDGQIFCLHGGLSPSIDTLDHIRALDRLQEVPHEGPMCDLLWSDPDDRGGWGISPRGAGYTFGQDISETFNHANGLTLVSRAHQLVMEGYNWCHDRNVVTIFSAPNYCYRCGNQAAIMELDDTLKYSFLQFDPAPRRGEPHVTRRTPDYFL
UniProt P62937, whole entry, looked up: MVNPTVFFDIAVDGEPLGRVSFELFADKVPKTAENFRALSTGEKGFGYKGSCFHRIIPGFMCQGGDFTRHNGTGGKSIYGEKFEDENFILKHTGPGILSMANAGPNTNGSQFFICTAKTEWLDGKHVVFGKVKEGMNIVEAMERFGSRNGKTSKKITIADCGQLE
UniProt Q00653: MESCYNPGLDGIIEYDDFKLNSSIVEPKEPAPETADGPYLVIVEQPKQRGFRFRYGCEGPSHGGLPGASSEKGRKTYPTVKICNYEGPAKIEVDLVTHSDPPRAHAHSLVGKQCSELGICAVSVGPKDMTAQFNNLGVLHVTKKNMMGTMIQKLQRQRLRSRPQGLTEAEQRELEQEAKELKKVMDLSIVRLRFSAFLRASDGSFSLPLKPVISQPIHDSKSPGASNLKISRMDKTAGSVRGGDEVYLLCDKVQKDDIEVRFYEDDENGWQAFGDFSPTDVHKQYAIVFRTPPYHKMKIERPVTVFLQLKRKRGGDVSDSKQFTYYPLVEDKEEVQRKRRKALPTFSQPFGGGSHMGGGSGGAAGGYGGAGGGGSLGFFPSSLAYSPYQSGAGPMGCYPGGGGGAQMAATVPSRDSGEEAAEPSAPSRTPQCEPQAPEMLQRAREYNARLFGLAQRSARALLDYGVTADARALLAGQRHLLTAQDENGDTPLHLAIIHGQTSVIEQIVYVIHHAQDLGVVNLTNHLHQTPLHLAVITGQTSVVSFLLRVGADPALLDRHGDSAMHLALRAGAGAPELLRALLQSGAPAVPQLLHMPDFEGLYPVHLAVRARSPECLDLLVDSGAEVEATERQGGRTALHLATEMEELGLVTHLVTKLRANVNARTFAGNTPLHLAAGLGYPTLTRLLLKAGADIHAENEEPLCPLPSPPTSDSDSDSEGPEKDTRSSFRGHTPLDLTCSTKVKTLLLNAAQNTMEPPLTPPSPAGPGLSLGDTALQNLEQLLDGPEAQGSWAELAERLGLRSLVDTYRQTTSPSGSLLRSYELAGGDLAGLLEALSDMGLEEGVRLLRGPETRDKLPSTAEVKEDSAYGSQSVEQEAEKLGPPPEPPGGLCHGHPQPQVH
UniProt P67870, whole entry: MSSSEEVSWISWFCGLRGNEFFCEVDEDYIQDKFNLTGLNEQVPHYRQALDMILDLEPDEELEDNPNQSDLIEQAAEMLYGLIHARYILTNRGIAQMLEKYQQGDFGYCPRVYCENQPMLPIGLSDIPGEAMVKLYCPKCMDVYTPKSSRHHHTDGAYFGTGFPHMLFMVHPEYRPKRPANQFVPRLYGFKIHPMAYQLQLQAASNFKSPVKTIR

Compound: Nc1ncnc2c1ncn2[C@@H]1O[C@H](COP(=O)(O)OP(=O)(O)OP(=O)(O)O)[C@@H](O)[C@H]1O [adenosine triphosphate]
Test: NP40-soluble protein abundance relative to vehicle (solubility fold change) (ratio); higher = more soluble protein in presence of ATP
Procedure, shortened: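 Values are fold changes against the detergent-processed vehicle, based on vsn-normalised intensities. Jurkat crude lysate was treated at eight concentrations from 0.1 to 10 mM (10 min at room temperature, then 3 min at 37 °C), solubilised with 0.8% NP40 and benzonase, ultracentrifuged and analysed by TMT-labelled LC-MS/MS over three independent experiments.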

Target | NP40-soluble protein abundance (concentration: 0.1mM) | NP40-soluble protein abundance (concentration: 0.5mM) | NP40-soluble protein abundance (concentration: 1mM) | NP40-soluble protein abundance (concentration: 2mM) | NP40-soluble protein abundance (concentration: 4mM) | NP40-soluble protein abundance (concentration: 6mM) | NP40-soluble protein abundance (concentration: 8mM) | NP40-soluble protein abundance (concentration: 10mM)
UniProt P60900 and related entries | 1.01 ± 0.025 | 0.9928 ± 0.0045 | – | – | – | – | – | –
RPL38 (UniProt P63173) | 0.969 ± 0.073 | 0.939 ± 0.061 | – | – | – | – | – | –
LSM11 (UniProt P83369) | 1.01 ± 0.15 | 1.08 ± 0.1 | 1.32 ± 0.26 | 1.26 ± 0.15 | 1.4 ± 0.17 | 1.62 ± 0.32 | 1.46 ± 0.2 | 1.69 ± 0.4
UniProt P78536 and related entries | 0.939 ± 0.057 | 0.839 ± 0.1 | – | – | – | – | – | –
YWHAZ (UniProt P63104) | 0.894 ± 0.079 | 0.869 ± 0.11 | 0.892 ± 0.2 | 0.94 ± 0.045 | 0.896 ± 0.025 | 0.918 ± 0.17 | 0.8927 ± 0.0068 | 0.819 ± 0.066
SEC24C (UniProt P53992) | 1.01 ± 0.039 | 0.983 ± 0.023 | 0.99 ± 0.055 | 0.987 ± 0.057 | 0.98 ± 0.043 | 0.919 ± 0.095 | 0.981 ± 0.019 | 0.984 ± 0.074
UniProt P53367 and related entries | 0.993 ± 0.034 | 1.04 ± 0.1 | – | – | – | – | – | –
UniProt P62280 | 0.897 ± 0.15 | 0.892 ± 0.14 | – | – | – | – | – | –
UniProt P63218 | 0.88 ± 0.2 | 0.802 ± 0.21 | 0.812 ± 0.15 | 0.735 ± 0.17 | 0.799 ± 0.22 | 0.72 ± 0.12 | 0.77 ± 0.16 | 0.678 ± 0.18
UniProt P56381 | 1.08 ± 0.16 | 0.942 ± 0.16 | 2.11 ± 1.8 | 0.927 ± 0.037 | 0.827 ± 0.014 | 1.2 ± 0.39 | 0.93 ± 0.067 | 0.875 ± 0.046
AP3M2 (UniProt P53677) | 1.08 ± 0.096 | 1.03 ± 0.083 | 1.09 ± 0.019 | 1.08 ± 0.016 | 1.13 ± 0.043 | 1.02 ± 0.047 | 1.06 ± 0.051 | 1.08 ± 0.069
UniProt P62854 | 0.915 ± 0.19 | 0.862 ± 0.17 | 0.92 ± 0.095 | 0.912 ± 0.11 | 0.911 ± 0.18 | 0.809 ± 0.13 | 0.745 ± 0.099 | 0.843 ± 0.13
CDK5 (UniProt Q00535) | 1.02 ± 0.062 | 1.03 ± 0.027 | – | – | – | – | – | –
UniProt P62191 | 0.996 ± 0.022 | 0.969 ± 0.036 | – | – | – | – | – | –
CDK6 (UniProt Q00534) | 1.04 ± 0.064 | 1.02 ± 0.048 | 0.984 ± 0.047 | 0.999 ± 0.051 | 0.988 ± 0.05 | 0.955 ± 0.058 | 0.966 ± 0.041 | 0.974 ± 0.064
RHOA (UniProt P61586) | 1 ± 0.046 | 1.04 ± 0.049 | 0.996 ± 0.14 | 1.01 ± 0.078 | 0.968 ± 0.06 | 1.09 ± 0.069 | 0.939 ± 0.023 | 0.944 ± 0.027
UniProt P61026 | 0.981 ± 0.031 | 0.985 ± 0.021 | – | – | – | – | – | –
POLG (UniProt P54098) | 1 ± 0.052 | 0.989 ± 0.037 | – | – | – | – | – | –
ARF3 (UniProt P61204) | 1.08 ± 0.088 | 1.07 ± 0.042 | 1.05 ± 0.21 | 1.01 ± 0.17 | 1.04 ± 0.13 | 0.961 ± 0.23 | 1.05 ± 0.073 | 0.996 ± 0.08
SUB1 (UniProt P53999) | 0.892 ± 0.067 | 0.87 ± 0.15 | – | – | – | – | – | –
UniProt P59190 | 1.35 ± 0.11 | 1.1 ± 0.11 | 1.18 ± 0.054 | 2.37 ± 1.5 | 1.25 ± 0.21 | 1.16 ± 0.23 | 1.22 ± 0.2 | 1.18 ± 0.15
COPA (UniProt P53621) | 1.01 ± 0.061 | 1.02 ± 0.029 | – | – | – | – | – | –
UniProt P54274 and related entries | 0.955 ± 0.17 | 1.02 ± 0.18 | 1.14 ± 0.12 | 1.27 ± 0.17 | 1.43 ± 0.17 | 1.69 ± 0.26 | 1.58 ± 0.25 | 1.88 ± 0.35
PPP2CA (UniProt P67775) | 0.989 ± 0.029 | 1.01 ± 0.07 | 0.959 ± 0.061 | 0.925 ± 0.0053 | 0.908 ± 0.021 | 0.962 ± 0.033 | 0.9033 ± 0.007 | 0.9 ± 0.085
UniProt P62937 and related entries | 0.98 ± 0.12 | 1.01 ± 0.083 | 0.914 ± 0.063 | 1.02 ± 0.05 | 0.894 ± 0.091 | 0.992 ± 0.084 | 0.882 ± 0.11 | 0.962 ± 0.056
UniProt Q00653 and related entries | 1.01 ± 0.025 | 1.03 ± 0.041 | 1.006 ± 0.0072 | 0.99 ± 0.026 | 0.971 ± 0.025 | 0.995 ± 0.022 | 0.965 ± 0.021 | 0.973 ± 0.012
UniProt P67870 and related entries | 1.02 ± 0.056 | 1.006 ± 0.0087 | 0.972 ± 0.024 | 1 ± 0.021 | 1.013 ± 0.0063 | 1.05 ± 0.067 | 1.07 ± 0.019 | 1.04 ± 0.017

In another format: results already given.
Target,NP40-soluble protein abundance (concentration: 0.1mM),NP40-soluble protein abundance (concentration: 0.5mM),NP40-soluble protein abundance (concentration: 1mM),NP40-soluble protein abundance (concentration: 2mM),NP40-soluble protein abundance (concentration: 4mM),NP40-soluble protein abundance (concentration: 6mM),NP40-soluble protein abundance (concentration: 8mM),NP40-soluble protein abundance (concentration: 10mM)
LSM11 (UniProt P83369),1.01 ± 0.15,1.08 ± 0.1,1.32 ± 0.26,1.26 ± 0.15,1.4 ± 0.17,1.62 ± 0.32,1.46 ± 0.2,1.69 ± 0.4
YWHAZ (UniProt P63104),0.894 ± 0.079,0.869 ± 0.11,0.892 ± 0.2,0.94 ± 0.045,0.896 ± 0.025,0.918 ± 0.17,0.8927 ± 0.0068,0.819 ± 0.066
SEC24C (UniProt P53992),1.01 ± 0.039,0.983 ± 0.023,0.99 ± 0.055,0.987 ± 0.057,0.98 ± 0.043,0.919 ± 0.095,0.981 ± 0.019,0.984 ± 0.074
UniProt P56381,1.08 ± 0.16,0.942 ± 0.16,2.11 ± 1.8,0.927 ± 0.037,0.827 ± 0.014,1.2 ± 0.39,0.93 ± 0.067,0.875 ± 0.046
CDK6 (UniProt Q00534),1.04 ± 0.064,1.02 ± 0.048,0.984 ± 0.047,0.999 ± 0.051,0.988 ± 0.05,0.955 ± 0.058,0.966 ± 0.041,0.974 ± 0.064
UniProt Q00653 and related entries,1.01 ± 0.025,1.03 ± 0.041,1.006 ± 0.0072,0.99 ± 0.026,0.971 ± 0.025,0.995 ± 0.022,0.965 ± 0.021,0.973 ± 0.012
